The target of the assay is T1, Histidine-tagged SCHAD (UniProt Q16836).
T1 sequence: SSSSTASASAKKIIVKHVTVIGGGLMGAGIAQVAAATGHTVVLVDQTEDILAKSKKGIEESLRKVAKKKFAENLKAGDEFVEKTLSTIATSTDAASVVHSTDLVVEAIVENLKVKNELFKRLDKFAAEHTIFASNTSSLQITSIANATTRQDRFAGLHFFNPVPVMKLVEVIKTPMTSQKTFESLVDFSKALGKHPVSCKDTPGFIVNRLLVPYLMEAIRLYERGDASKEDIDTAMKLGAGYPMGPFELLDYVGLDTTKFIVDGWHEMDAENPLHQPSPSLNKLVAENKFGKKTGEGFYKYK
The assay is described as follows: affinity purification with mass spectrometry; His-tagged SCHAD linked to agarose beads (AminoLink Plus, cyanoborohydride); homogenates of mouse liver, muscle, heart, kidney and brain (wild type and SCHAD knockout) in 50 mM Tris-HCl, 0.1% Triton-X 100, 1 mg/mL, 4°C overnight; eluted proteins identified by LC-MS/MS, BSA beads as control; only the target purified.

The chains behind the UniProt entries cited, without tags or fusion partners. Residues count along the entry.
UniProt Q91YI0: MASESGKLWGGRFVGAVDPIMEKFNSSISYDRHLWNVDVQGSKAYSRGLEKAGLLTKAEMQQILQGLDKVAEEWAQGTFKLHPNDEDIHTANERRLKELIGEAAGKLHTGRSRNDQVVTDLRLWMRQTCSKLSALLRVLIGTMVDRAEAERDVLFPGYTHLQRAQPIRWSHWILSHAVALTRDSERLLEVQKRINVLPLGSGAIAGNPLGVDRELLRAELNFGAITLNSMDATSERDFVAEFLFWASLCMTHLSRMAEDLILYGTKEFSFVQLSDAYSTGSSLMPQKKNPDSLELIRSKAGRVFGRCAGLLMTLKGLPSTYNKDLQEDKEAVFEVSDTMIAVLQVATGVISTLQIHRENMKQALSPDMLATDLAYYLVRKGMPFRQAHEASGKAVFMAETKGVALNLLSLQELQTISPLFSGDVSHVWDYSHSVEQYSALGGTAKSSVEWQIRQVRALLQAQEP
UniProt P15105: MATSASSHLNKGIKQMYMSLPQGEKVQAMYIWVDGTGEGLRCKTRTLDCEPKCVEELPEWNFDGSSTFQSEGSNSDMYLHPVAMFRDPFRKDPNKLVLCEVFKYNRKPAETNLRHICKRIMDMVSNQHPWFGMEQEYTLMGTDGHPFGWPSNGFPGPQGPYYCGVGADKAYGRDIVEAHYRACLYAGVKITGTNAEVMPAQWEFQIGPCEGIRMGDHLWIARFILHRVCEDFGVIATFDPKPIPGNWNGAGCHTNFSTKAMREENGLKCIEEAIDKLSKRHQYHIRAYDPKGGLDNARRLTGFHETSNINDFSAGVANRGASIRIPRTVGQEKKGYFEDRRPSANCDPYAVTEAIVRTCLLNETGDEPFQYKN
UniProt P26443, residues 54-558: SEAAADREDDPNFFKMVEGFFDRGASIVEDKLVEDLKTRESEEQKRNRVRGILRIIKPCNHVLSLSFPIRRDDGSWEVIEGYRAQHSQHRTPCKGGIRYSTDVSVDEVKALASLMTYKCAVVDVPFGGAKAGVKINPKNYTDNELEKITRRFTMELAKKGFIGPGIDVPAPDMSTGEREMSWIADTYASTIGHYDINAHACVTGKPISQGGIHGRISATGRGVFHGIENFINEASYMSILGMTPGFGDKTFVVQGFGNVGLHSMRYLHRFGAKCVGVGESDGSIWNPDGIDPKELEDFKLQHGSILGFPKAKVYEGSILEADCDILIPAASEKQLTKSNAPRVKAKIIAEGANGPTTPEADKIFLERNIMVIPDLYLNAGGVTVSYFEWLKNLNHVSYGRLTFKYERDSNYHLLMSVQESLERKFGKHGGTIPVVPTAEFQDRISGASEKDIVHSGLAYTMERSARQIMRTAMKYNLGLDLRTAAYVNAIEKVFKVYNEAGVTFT
UniProt Q9D0K2, residues 40-520: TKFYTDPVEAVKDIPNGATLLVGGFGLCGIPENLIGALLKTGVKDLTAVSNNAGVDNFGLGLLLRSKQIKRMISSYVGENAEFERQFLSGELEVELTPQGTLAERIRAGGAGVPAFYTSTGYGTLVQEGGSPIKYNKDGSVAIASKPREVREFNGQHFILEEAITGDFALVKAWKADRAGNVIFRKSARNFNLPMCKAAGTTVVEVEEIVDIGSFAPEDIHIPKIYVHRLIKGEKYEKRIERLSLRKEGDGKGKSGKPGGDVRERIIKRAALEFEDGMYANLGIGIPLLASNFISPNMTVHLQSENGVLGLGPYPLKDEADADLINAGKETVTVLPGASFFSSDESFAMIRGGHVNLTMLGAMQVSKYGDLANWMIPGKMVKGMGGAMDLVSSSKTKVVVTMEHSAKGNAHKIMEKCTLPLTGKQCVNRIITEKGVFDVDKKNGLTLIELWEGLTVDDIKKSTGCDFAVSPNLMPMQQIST
UniProt P97807, residues 42-507: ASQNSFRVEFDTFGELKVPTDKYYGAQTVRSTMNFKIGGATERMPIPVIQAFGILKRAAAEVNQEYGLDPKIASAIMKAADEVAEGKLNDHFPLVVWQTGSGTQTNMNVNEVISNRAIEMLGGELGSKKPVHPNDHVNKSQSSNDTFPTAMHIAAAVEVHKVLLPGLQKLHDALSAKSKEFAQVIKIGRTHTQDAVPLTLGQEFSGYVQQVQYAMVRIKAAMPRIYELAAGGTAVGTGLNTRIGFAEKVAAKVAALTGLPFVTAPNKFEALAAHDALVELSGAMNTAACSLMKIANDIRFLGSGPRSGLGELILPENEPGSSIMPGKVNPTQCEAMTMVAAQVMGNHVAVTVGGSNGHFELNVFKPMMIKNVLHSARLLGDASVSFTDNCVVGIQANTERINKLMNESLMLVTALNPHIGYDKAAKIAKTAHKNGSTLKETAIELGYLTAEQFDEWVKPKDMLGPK
UniProt Q91WD5, residues 34-463: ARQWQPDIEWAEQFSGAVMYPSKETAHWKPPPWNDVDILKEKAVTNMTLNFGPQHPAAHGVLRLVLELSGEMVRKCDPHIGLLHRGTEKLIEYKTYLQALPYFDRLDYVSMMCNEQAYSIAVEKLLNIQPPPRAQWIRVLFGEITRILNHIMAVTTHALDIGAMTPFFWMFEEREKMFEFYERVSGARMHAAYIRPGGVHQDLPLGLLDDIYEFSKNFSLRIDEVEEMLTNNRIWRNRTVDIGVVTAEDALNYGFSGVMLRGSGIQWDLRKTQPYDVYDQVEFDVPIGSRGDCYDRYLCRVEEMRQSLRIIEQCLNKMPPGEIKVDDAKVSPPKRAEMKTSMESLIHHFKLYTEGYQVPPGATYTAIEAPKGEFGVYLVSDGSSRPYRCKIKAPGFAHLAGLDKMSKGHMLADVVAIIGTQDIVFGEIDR

These are yes or no findings as the source states them, for the method shown. Binding seen in cells or lysates may run through a third protein. These calls come from enrichment with a bait or labelling near it, and not all partners need be listed. Sequences can lack the tags named with a protein.

For aspartate aminotransferase (mouse), the binding result was “binds”.

For “argininosuccinate lyase (from UniProt Q91YI0 1-464)”, the binding entry is “binds”.

On to “glutamine synthase (mouse) (from UniProt P15105 1-373)”, for which the binding entry is reported as “binds”.

For the molecule “isocitrate dehydrogenase (mouse (endogenous in mouse tissues))”, the binding result is “binds”.

“glutamate dehydrogenase (mouse) (from UniProt P26443 54-558)”: the binding entry is recorded as “binds”.

With “succinyl-CoA: 3-ketoacid acyl transferase (from UniProt Q9D0K2 40-520)”, the binding entry is recorded as “binds”.

Regarding “fumarate hydratase (from UniProt P97807 42-507)”, the binding entry is “binds”.

As to “NADH dehydrogenase iron-sulfurprotein2 (from UniProt Q91WD5 34-463)”, the binding result is reported as “binds”.

Regarding glycogen phosphorylase (mouse), the binding entry was “binds”.

For the molecule “3-ketoacyl-coA thiolase (mouse (endogenous in mouse tissues))”, the binding result is reported as “binds”.

B1: carnitine palmitoyl transferase 2 (protein, UniProt P52825 26-658)
chain: SAVSGPAEYLQHSIVPTMHYQDSLPRLPIPKLEDTMKRYLSAQKPLLNDSQFRKTEVLCKDFENGIGKELHAHLLAQDKQNKHTSYISGPWFDMYLTARDSVVLNFNPFMAFNPDPKSEYNDQLTRATNLTVSAVRFLKTLRAGLLEPEVFHLNPARSDTDAFKRLIRFVPSSLSWYGAYLVNAYPLDMSQYFRLFNSTRIPKPSRDELFTDTKARHLLVLRKGHFYVFDVLDQDGNIVNPSEIQAHLKYILSDSSPVPEFPLAYLTSENRDVWAELRQKLIHGGNEETLRKVDSAVFCLCLDDFPMKDLVHLSHTMLHGDGTNRWFDKSFNLIVAKDGTAAVHFEHAWGDGVAVLRFFNEVFRDSTQTPAIAPQSQPAATDSSVSVQKLSFKLSSALKAGVTAAKEKFDATMKTLTIDAIQFQRGGKEFLKKKKLSPDAVAQLAFQMAFLRQYGQTVATYESCSTAAFKHGRTETIRPASIFTKRCSEAFVREPSKHSVGELQHMMAECSKYHGQLTKEAAMGQGFDRHLFALRYLAAARGVTLPELYQDPAYQRINHNILSTSTLSSPAVSLGGFAPVVPDGFGIAYAVHDDWIGCNVSSYSGRNAREFLHCVQKCLEDMFDALEGKAIKT
Consider B1, for which the binding entry is reported as “binds”.

B2: ACAD 10 (protein, UniProt Q8K370 1-1069)
chain: MLVRRLFQPSTLHWAWRTTALNHPLGRHQGGLRWTHSGGRSYRAVIFDTGGVLVPSPGTVAVGWEVQNHVPSGTIVKAFIRGGDSGPWIRFIKGEITTEHFLEEFGRLCSEIAKTSVPVSSYFSLLTSEQVTKQFPVMTQAISQIRAKGLQTAVLTNNFHLSSGESFLPLDRKQFDVVVESCLEGICKPDPRIFQLCLQRLSLQPSEAIFLDDLGSNLKVAASLGIHTIKVDRPETAVKELEALLGFPLHLGVPNTRPVRKTMAIPQDALEKYLKGLLGTHSTGPMELLQFDHGQSNPTYYIRLADRQLVLRKKPSGTLLPSAHAIEREFRIMKALANAGVPVPTVLDLCEDSSIIGTPFYLMEYCPGIIYKDPSLPGLEPSRREAIYTAMNQVLCRIHSVDLQATSLDSFGKQGDYIPRQVQTWTKQYRAAETSSIPAMERLIQWLPLHLPRQQRTTLVHGDFRLDNLIFHPEKAEVLAVLDWELSTLGDPFADVAYSCLAYYLPSSFPILRGFRDQDVTKLGIPTVEEYFRMYCLNMGIPPIDNWNFYMAFSFFRVAAILQGVYKRSLTGQASSATAQQSGKLTESMAELAWDFATKEGFRVFKEMPATKTLSRSYHAWAGPRSPRTPKGVRGHSTVAAASPSHEAKGGLVISPEGLSPAVRKLYEQLVQFIEQKVYPLEPELQRHQASADRWSPSPLIEDLKEKAKAEGLWNLFLPLETDPEKKYGAGLTNVEYAHLCEVMGMSLYASEIFNCSAPDTGNMEILVRYGTEEQKARWLVPLLEGRIRSCFAMTEPQVASSDASNIEASIKEEDGCYVINGHKWWTSGILDPRCKLCVFMGKTDPQAPRHQQQSMLLVPMDSPGITVIRPLSVFGLEDPPGGHGEVRFKDVRVPKENILLGPGRGFEIAQGRLGPGRIHHCMRLIGYSERALALMKTRVMSRTAFGKPLVEQGTILADIARSRVEIEQARLLVLKAAHLMDVAGNKTAALDIAMIKMVVPSMAYHVIDRAIQAFGAAGLSSDYPLAQFFGWARALRFADGPDEVHQLTVAKMELKNQSRMQEPAVPRV
As to B2, the binding entry is “binds”.

B3: argininosuccinate synthase (protein, UniProt P16460 1-412)
chain: MSSKGSVVLAYSGGLDTSCILVWLKEQGYDVIAYLANIGQKEDFEEARKKALKLGAKKVFIEDVSKEFVEEFIWPAVQSSALYEDRYLLGTSLARPCIARRQVEIAQREGAKYVSHGATGKGNDQVRFELTCYSLAPQIKVIAPWRMPEFYNRFKGRNDLMEYAKQHGIPIPVTPKSPWSMDENLMHISYEAGILENPKNQAPPGLYTKTQDPAKAPNSPDVLEIEFKKGVPVKVTNIKDGTTRTTSLELFMYLNEVAGKHGVGRIDIVENRFIGMKSRGIYETPAGTILYHAHLDIEAFTMDREVRKIKQGLGLKFAELVYTGFWHSPECEFVRHCIQKSQERVEGKVQVSVFKGQVYILGRESPLSLYNEELVSMNVQGDYEPIDATGFININSLRLKEYHRLQSKVTAK
Turning to B3, the binding result is on record as “binds”.

B4: carbamoyl phosphate synthase 1 (mouse) (protein, UniProt Q8C196 39-1500)
chain: LSVKAKTAHIVLEDGTKMKGYSFGHPSSVAGEVVFNTGLGGYPEALTDPAYKGQILTMANPIIGNGGAPDTTARDELGLNKYMESDGIKVAGLLVLNYSNDYNHWLATKSLGQWLQEEKVPAIYGVDTRMLTKIIRDKGTMLGKIEFEGQSVDFVDPNKQNLIAEVSTKDVKVFGKGNPTKVVAVDCGIKNNVIRLLVKRGAEVHLVPWNHDFTQMEYDGLLIAGGPGNPALAQPLIQNVKKILESDRKEPLFGISTGNIITGLAAGAKSYKMSMANRGQNQPVLNITNRQAFITAQNHGYALDNTLPAGWKPLFVNVNDQTNEGIMHESKPFFAVQFHPEVSPGPTDTEYLFDSFFSLIKKGKGTTITSVLPKPALVASRVEVSKVLILGSGGLSIGQAGEFDYSGSQAVKAMKEENVKTVLMNPNIASVQTNEVGLKQADAVYFLPITPQFVTEVIKAERPDGLILGMGGQTALNCGVELFKRGVLKEYGVKVLGTSVESIMATEDRQLFSDKLNEINEKIAPSFAVESMEDALKAADTIGYPVMIRSAYALGGLGSGICPNKETLIDLGTKAFAMTNQILVERSVTGWKEIEYEVVRDADDNCVTVCNMENVDAMGVHTGDSVVVAPAQTLSNAEFQMLRRTSVNVVRHLGIVGECNIQFALHPTSMEYCIIEVNARLSRSSALASKATGYPLAFIAAKIALGIPLPEIKNVVSGKTSACFEPSLDYMVTKIPRWDLDRFHGTSSRIGSSMKSVGEVMAIGRTFEESFQKALRMCHPSVDGFTPRLPMNKEWPANLDLKKELSEPSSTRIYAIAKALENNMSLDEIVRLTSIDKWFLYKMRDILNMDKTLKGLNSDSVTEETLRKAKEIGFSDKQISKCLGLTEAQTRELRLKKNIHPWVKQIDTLAAEYPSVTNYLYVTYNGQEHDIKFDEHGIMVLGCGPYHIGSSVEFDWCAVSSIRTLRQLGKKTVVVNCNPETVSTDFDECDKLYFEELSLERILDIYHQEACNGCIISVGGQIPNNLAVPLYKNGVKIMGTSPLQIDRAEDRSIFSAVLDELKVAQAPWKAVNTLNEALEFANSVGYPCLLRPSYVLSGSAMNVVFSEDEMKRFLEEATRVSQEHPVVLTKFVEGAREVEMDAVGKEGRVISHAISEHVEDAGVHSGDATLMLPTQTISQGAIEKVKDATRKIAKAFAISGPFNVQFLVKGNDVLVIECNLRASRSFPFVSKTLGVDFIDVATKVMIGESIDEKRLPTLEQPIIPSDYVAIKAPMFSWPRLRDADPILRCEMASTGEVACFGEGIHTAFLKAMLSTGFKIPQKGILIGIQQSFRPRFLGVAEQLHNEGFKLFATEATSDWLNANNVPATPVAWPSQEGQNPSLSSIRKLIRDGSIDLVINLPNNNTKFVHDNYVIRRTAVDSGIALLTNFQVTKLFAEAVQKSRTVDSKSLFHYRQYSAGKAA
As for B4, the binding entry is given as “binds”.

B5: hydroxymethyl-CoA synthase (protein, UniProt P54869 38-508)
chain: TIPPAPLAKTDTWPKDVGILALEVYFPAQYVDQTDLEKFNNVEAGKYTVGLGQTRMGFCSVQEDINSLCLTVVQRLMERTKLPWDAVGRLEVGTETIIDKSKAVKTVLMELFQDSGNTDIEGIDTTNACYGGTASLFNAANWMESSYWDGRYALVVCGDIAVYPSGNARPTGGAGAVAMLIGPKAPLVLEQGLRGTHMENAYDFYKPNLASEYPLVDGKLSIQCYLRALDRCYAAYRKKIQNQWKQAGNNQPFTLDDVQYMIFHTPFCKMVQKSLARLMFNDFLSSSSDKQNNLYKGLEAFRGLKLEETYTNKDVDKALLKASLDMFNQKTKASLYLSTNNGNMYTSSLYGCLASLLSHHSAQELAGSRIGAFSYGSGLAASFFSFRVSKDASPGSPLEKLVSSVSDLPKRLDSRRRMSPEEFTEIMNQREQFYHKVNFSPPGDTSNLFPGTWYLERVDEMHRRKYARCPV
As for B5, the binding result is recorded as “binds”.

B6: long chain acyl-CoA dehydrogenase (protein, UniProt P51174 31-430)
chain: GAEARLETPSAKKLTDVGIRRIFSSEHDIFRESVRKFFQEEVIPHHTEWEKAGEVSREVWEKAGKQGLLGINIAEKHGGIGGDLLSTAVTWEEQAYSNCTGPGFSLHSDIVMPYIANYGTKEQIEKFIPQMTAGKCIGAIAMTEPGAGSDLQGVRTNAKRSGSDWILNGSKVFITNGWLSDLVIVVAVTNREARSPAHGISLFLVENGMKGFIKGRKLHKMGMKAQDTAELFFEDVRLPANALLGEENKGFYYLMQELPQERLLIAELAISACEFMFEETRNYVKQRKAFGKTVAHIQTVQHKLAELKTHICVTRAFVDSCLQLHETKRLDSGSASMAKYWASELQNSVAYECVQLHGGWGYMWEYPIAKAYVDARVQPIYGGTNEIMKELIARQIVSDS
With B6, the binding entry is “binds”.

B7: hydroxymethyl-coA lyase (protein, UniProt P38060 28-325)
chain: TLPKQVKIVEVGPRDGLQNEKSIVPTPVKIRLIDMLSEAGLPVIEATSFVSPKWVPQMADHSDVLKGIQKFPGINYPVLTPNMKGFEEAVAAGAKEVSVFGAVSELFTRKNANCSIEESFQRFAGVMQAAQAASISVRGYVSCALGCPYEGKVSPAKVAEVAKKLYSMGCYEISLGDTIGVGTPGLMKDMLTAVMHEVPVTALAVHCHDTYGQALANTLVALQMGVSVVDSSVAGLGGCPYAKGASGNLATEDLVYMLNGLGIHTGVNLQKLLEAGDFICQALNRKTSSKVAQATCKL
On to B7, for which the binding result is on record as “binds”.

Source of the values: PMC3322157.
